Laboratory results published in US9493539B2, “Peptides associated with HLA-DR MHC class II molecules involved in autoimmune diseases” (LONDON HEALTH SCIENCES CENTRE RESEARCH INC., priority 2003, dated 2016).
Square brackets hold non-standard residues; d marks the D form. Ends that are not written are not given here. Cit = NC(=O)NCCC[C@H](N)C(=O)O

Tested on: anti-citrulline antibodies
Assay: ELISA detection of anti-citrulline antibodies in human serum for diagnosis of RA

## [Cit][Cit]Y[Cit]G[Cit][Cit]S[Cit][Cit]S[Cit][Cit] [JED]
51 rheumatoid arthritis patients, human serum
  correlation co-efficient with the commercial CCP kit: 0.48
Table 1, for rheumatoid arthritis, 48 patients with other rheumatic diseases
  Specificity (%): 94%
Table 1, for rheumatoid arthritis, 74 RA patients
  Sensitivity (%): 66%
Table 2, diagnosis of rheumatoid arthritis, 51 RA patients
  Sensitivity (%): 71%
Table 2, diagnosis of rheumatoid arthritis, vs 49 psoriatic arthritis patients
  Specificity (%): 98%
